Data as given in PubChem BioAssay AID1259425 (University of Nebraska Medical Center, 2018).

- Assay: 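Seek colon cancer weak points whose silencing resembles KSR1 loss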 (primary screen)
- System: HCT116 human colon cancer cells
- Reagents: siRNA pool against human genes, 50 nM siRNA
- Read-out: 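mRNA of six signature genes measured together by branched-DNA assay after 50 nM siRNA pool, blank removed, divided by geometric mean of two housekeeping genes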
- Scale: BNIP3L mRNA: higher = more BNIP3L transcript after knockdown; NDRG1 mRNA: higher = more NDRG1 transcript after knockdown; BNIP3 mRNA: higher = more BNIP3 transcript after knockdown; ALDOC mRNA: higher = more ALDOC transcript after knockdown
The deposit covers about 14,000 reagents; shown is an unselected part. Further read-outs or replicates are left out here. The record does not give: the time to read-out.

Target gene	PubChem SID	BNIP3L mRNA, set 1	NDRG1 mRNA, set 1	BNIP3 mRNA, set 1	ALDOC mRNA, set 1
H4C12 (H4 clustered histone 12)	SID363994624	0.112	0.156	0.283	0.0304
PIGC (phosphatidylinositol glycan anchor biosynthesis class C)	SID363993810	0.12	0.074	0.327	0.0357
PTN (pleiotrophin)	SID363993981	0.146	0.441	0.296	0.0133
LACTB2 (lactamase beta 2)	SID363999806	0.0675	0.0687	0.306	0.0249
NLGN4X (neuroligin 4 X-linked)	SID364001799	0.147	0.352	0.255	0.0698
SOX15 (SRY-box transcription factor 15)	SID363997694	0.419	0.533	0.559	0.0419
ABCE1 (ATP binding cassette subfamily E member 1)	SID363994092	0.102	0.391	0.439	0.0117
HEATR1 (HEAT repeat containing 1)	SID364005557	0.127	0.284	0.469	0.0375
TAMALIN (trafficking regulator and scaffold protein tamalin)	SID364004940	0.0518	0.196	0.254	0.0225
FCER1G (Fc epsilon receptor Ig)	SID363995116	0.0118	0.235	0.234	0.0247
SBDS (SBDS ribosome maturation factor)	SID363999815	0.0659	0.0955	0.243	0.0208
MT1A (metallothionein 1A)	SID363996811	0.115	0.0867	0.308	0.0215
ECT2 (epithelial cell transforming 2)	SID364000779	0.0909	0.574	0.407	0.0172
PLSCR1 (phospholipid scramblase 1)	SID364002013	0.0937	0.33	0.253	0.0488
SEPTIN4 (septin 4)	SID363995545	0.11	0.724	0.407	0.0412
IGFLR1 (IGF like family receptor 1)	SID364002954	0.133	0.847	0.486	0.0499
SLC45A3	SID364004319	0.187	1.28	0.269	0.0542
NEB (nebulin)	SID363995515	0.0782	0.144	0.491	0.0245
SLC13A3	SID364002573	0.125	0.411	0.314	0.0306
ITIH1 (inter-alpha-trypsin inhibitor heavy chain 1)	SID363993416	0.0713	0.18	0.295	0.0276
